# Assay results from patent publication US6929796.
# By UniProt entry, the sequences of proteins in these tests, tags left out. Where a name states a change or a piece, a line headed by the entry shows the natural chain unless it says otherwise. Residues count along the entry.
# UniProt P02712: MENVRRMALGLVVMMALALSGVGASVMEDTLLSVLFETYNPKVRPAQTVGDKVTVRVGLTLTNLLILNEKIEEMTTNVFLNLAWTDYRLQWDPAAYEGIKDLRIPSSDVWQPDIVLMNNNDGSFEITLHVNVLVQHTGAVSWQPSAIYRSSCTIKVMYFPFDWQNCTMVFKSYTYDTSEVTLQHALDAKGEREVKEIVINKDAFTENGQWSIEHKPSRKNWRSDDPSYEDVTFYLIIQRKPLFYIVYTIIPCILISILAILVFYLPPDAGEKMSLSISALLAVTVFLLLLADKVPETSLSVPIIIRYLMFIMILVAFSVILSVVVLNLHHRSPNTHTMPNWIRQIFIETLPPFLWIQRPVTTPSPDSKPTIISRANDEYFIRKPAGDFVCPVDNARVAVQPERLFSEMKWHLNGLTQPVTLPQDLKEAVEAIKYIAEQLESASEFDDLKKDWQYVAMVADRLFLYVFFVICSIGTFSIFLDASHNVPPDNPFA
# UniProt P60615, residues 22-95: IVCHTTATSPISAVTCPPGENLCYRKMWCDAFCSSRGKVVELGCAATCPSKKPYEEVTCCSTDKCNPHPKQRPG
# Results are given in words; binding and its absence hold for the method and conditions named. Some results given as binding are weak or reduced against the parent protein; the word gives no strength.
# Molecular target: Torpedo californica acetylcholine receptor (Torpedo californica) (UniProt P02712)
# Test: RIPA; Triton-solubilized TAChR labelled with 125I-αBTX
substance,measurement,value
α-bungarotoxin (from UniProt P60615 22-95) (ligand),binding,binds
